This is a selection; strong and weak results do not stand in their true shares. This is a noisy data set.
Compound: COC(=O)/C=C/c1ccccc1 [methyl cinnamate]
Experiment: log2 ratio of iodoacetamide-alkyne labeling of the cysteine site, DMSO over compound (competition); higher = stronger covalent engagement of the cysteine by the compound, active = 1 or more
Details: 500 µM; treatment time 1 h; system: HEK293T cell lysate
How it was run: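 HEK293T lysate (2 mg/mL) was incubated with electrophile (500 µM) or vehicle for 1 h at ambient temperature and then with iodoacetamide alkyne for 1 h. Labelled proteins were clicked to sCIP-TMT reagents, pooled, digested, enriched on streptavidin and measured by Orbitrap Eclipse LC-MS/MS with FAIMS, with FragPipe quantification. The per-cysteine log2 competition ratio is mean control-channel reporter intensity over mean compound-channel reporter intensity. Across three replicates with duplicate channels, cysteines quantified in only one replicate were excluded.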

By UniProt entry, the sequences of proteins in these tests, tags left out. Where a name states a change or a piece, a line headed by the entry shows the natural chain unless it says otherwise.
UniProt O00506, whole entry, looked up: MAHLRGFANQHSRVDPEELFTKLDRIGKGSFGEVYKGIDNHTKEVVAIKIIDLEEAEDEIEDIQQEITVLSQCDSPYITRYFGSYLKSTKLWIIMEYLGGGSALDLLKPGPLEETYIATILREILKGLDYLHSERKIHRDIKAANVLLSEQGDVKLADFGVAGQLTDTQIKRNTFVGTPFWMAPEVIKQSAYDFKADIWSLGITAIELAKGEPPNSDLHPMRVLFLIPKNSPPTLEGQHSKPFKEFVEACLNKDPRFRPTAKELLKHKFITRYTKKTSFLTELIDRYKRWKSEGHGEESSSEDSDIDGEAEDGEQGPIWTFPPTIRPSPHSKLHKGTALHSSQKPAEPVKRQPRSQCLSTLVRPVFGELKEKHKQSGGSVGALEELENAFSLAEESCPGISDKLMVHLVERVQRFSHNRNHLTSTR
UniProt O15550, whole entry, looked up: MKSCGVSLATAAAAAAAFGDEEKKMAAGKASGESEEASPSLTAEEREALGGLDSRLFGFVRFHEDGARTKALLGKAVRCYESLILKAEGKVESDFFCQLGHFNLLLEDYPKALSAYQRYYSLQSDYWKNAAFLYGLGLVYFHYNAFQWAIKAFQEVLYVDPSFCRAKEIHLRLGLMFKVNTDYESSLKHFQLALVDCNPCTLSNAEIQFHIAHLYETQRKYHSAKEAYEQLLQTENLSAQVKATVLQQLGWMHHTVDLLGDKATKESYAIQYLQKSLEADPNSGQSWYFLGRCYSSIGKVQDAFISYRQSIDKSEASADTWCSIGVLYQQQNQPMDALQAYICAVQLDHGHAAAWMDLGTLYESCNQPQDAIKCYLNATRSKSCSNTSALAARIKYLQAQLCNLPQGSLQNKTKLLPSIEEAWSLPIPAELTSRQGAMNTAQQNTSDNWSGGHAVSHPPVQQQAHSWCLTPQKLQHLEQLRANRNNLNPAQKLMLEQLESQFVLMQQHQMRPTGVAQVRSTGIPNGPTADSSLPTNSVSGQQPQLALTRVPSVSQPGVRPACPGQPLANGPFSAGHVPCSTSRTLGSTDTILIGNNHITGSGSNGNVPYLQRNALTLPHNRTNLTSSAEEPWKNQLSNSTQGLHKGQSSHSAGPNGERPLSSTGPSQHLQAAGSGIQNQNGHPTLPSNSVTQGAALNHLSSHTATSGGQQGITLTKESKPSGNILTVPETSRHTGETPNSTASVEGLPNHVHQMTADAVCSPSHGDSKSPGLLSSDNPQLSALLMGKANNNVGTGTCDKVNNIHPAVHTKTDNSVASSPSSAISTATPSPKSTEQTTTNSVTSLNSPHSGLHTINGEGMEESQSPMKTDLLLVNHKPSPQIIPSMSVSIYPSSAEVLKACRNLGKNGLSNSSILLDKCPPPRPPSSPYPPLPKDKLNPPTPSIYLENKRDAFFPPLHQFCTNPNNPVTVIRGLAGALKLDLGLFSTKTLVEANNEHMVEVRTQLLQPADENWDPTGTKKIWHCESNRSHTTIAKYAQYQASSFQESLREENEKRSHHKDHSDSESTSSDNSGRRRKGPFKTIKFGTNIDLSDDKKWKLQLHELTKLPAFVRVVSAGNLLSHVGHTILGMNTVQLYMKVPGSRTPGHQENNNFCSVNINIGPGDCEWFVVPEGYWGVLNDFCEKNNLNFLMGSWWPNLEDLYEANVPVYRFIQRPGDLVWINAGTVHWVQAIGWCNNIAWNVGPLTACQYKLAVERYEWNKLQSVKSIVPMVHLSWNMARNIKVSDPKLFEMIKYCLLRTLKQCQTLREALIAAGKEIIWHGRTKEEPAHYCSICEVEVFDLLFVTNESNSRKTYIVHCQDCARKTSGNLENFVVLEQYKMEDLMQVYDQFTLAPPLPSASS
UniProt O15226: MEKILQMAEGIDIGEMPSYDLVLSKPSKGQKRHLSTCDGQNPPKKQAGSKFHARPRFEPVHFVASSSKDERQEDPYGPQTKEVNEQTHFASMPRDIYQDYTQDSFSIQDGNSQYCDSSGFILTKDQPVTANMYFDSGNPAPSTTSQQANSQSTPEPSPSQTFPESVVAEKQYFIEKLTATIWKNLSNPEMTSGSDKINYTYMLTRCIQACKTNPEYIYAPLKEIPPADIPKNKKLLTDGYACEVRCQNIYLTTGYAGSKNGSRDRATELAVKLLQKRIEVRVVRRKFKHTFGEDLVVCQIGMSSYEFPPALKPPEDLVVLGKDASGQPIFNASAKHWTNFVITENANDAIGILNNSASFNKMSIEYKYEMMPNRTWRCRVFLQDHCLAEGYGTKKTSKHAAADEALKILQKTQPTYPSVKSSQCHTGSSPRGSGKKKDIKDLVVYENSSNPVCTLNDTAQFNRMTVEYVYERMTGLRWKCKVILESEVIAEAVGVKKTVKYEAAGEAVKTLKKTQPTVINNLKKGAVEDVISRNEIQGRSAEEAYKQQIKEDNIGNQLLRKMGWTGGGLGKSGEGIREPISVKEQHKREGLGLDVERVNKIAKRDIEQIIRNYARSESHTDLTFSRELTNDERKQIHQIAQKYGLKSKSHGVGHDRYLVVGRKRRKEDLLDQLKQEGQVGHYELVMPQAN
UniProt O14965: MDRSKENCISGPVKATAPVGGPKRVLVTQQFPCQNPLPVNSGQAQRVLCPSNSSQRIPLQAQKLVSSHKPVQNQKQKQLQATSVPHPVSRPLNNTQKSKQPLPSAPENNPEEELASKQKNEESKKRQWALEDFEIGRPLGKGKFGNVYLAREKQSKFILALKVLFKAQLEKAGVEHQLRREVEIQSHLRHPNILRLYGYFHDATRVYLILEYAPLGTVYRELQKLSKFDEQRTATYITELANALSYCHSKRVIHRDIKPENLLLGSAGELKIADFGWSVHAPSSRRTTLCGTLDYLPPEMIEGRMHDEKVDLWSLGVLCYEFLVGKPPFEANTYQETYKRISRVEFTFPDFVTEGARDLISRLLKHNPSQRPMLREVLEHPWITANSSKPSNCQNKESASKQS
UniProt O14618: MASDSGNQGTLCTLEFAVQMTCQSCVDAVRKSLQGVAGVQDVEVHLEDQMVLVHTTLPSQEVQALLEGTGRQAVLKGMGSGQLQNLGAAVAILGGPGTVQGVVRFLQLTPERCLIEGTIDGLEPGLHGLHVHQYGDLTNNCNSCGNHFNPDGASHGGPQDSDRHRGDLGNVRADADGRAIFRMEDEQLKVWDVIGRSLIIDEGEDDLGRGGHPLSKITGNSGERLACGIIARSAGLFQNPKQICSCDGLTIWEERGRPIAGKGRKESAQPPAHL
UniProt O14734: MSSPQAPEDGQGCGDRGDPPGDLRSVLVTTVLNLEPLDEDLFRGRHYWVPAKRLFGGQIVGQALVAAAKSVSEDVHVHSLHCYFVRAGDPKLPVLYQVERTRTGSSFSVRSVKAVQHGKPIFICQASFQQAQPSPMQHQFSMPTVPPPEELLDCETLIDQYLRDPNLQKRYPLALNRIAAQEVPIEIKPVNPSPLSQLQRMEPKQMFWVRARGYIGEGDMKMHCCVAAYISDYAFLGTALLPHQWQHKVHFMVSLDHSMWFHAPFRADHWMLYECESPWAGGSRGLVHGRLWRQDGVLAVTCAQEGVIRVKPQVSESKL
UniProt O14654: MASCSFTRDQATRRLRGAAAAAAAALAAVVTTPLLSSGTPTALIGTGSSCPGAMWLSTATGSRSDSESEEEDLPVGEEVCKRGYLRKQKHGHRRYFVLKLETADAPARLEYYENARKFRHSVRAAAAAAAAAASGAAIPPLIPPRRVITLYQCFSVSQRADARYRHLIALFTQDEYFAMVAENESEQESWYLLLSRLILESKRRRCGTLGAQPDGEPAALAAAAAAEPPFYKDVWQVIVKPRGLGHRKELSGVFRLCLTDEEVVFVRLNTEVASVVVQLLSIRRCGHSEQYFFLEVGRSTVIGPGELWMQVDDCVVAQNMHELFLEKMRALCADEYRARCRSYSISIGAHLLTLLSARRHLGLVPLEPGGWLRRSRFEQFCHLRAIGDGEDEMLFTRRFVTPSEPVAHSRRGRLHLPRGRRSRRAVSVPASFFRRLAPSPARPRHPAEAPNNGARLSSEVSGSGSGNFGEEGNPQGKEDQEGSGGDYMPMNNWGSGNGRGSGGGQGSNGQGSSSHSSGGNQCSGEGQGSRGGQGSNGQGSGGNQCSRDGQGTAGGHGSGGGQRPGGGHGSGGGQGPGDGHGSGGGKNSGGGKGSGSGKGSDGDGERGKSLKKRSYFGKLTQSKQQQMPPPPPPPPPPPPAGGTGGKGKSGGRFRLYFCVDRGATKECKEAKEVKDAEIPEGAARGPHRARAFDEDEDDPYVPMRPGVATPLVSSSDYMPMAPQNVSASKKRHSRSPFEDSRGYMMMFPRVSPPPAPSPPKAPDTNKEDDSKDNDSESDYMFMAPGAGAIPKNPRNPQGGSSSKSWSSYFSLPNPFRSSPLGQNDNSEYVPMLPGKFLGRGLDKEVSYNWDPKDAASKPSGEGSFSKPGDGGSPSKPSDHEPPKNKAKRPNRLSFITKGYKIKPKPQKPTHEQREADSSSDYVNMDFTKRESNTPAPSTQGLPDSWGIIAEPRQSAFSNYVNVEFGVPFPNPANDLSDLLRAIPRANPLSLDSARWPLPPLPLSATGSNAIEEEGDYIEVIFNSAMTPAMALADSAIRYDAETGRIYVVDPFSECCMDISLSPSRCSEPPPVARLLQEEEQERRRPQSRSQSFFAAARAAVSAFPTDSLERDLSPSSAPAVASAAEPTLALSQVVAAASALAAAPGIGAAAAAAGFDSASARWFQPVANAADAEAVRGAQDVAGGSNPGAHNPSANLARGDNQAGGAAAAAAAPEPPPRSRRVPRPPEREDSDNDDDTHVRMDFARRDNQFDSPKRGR
UniProt O00116: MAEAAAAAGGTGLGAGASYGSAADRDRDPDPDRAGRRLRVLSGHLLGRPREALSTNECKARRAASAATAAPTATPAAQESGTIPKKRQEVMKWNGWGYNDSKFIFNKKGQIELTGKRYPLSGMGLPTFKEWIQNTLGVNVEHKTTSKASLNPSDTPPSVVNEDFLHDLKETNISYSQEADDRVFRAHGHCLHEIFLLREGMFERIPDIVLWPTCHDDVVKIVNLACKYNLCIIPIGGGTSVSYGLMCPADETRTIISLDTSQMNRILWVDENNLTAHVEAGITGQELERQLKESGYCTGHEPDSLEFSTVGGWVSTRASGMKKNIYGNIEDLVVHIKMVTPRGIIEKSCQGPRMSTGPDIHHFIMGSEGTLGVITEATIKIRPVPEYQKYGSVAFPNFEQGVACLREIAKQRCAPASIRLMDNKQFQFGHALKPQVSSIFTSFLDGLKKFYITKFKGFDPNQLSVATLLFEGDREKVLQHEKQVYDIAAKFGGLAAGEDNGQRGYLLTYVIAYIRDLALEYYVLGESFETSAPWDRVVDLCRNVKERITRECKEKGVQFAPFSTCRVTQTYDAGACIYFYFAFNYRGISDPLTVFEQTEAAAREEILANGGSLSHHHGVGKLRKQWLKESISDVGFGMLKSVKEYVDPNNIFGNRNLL
UniProt O14980, whole entry, looked up: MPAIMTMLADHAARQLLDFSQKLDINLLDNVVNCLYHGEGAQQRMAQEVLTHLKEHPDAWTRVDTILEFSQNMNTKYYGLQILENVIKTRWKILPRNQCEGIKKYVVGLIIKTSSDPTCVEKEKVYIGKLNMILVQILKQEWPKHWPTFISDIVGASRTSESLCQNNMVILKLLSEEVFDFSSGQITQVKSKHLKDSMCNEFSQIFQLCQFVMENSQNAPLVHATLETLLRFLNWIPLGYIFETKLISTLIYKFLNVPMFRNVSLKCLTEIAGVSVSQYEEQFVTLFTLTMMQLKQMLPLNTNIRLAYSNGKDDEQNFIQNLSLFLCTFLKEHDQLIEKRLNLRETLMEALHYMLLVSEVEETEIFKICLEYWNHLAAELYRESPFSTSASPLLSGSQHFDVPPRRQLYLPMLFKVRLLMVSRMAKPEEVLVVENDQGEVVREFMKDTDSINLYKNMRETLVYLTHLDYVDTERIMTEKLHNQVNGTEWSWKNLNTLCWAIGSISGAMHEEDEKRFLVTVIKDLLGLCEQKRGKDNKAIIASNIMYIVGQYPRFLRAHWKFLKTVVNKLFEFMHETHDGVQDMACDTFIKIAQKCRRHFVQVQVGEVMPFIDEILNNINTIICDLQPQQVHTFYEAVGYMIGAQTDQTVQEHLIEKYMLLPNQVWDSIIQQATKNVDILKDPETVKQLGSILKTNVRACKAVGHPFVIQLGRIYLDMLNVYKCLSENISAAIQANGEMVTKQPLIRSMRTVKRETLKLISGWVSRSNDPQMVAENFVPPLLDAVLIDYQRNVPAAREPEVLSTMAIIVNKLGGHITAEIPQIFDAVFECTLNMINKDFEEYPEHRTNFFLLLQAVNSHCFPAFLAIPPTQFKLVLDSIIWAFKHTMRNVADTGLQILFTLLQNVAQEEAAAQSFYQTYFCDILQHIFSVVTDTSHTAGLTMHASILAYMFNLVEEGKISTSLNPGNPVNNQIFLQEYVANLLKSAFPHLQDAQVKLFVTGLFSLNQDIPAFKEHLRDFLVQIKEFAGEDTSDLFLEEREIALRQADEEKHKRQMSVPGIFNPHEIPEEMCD

Target | log2 ratio of iodoacetamide-alkyne labeling
KPNA4 C122 (UniProt O00629) | inactive: 0.254
ZSWIM8 C125 (UniProt A7E2V4) | inactive: 0.187
KMT2D C2249 (UniProt O14686) | inactive: 0.51
UniProt O00506_C357 | inactive: 0.0714
KDM6A C960 (UniProt O15550) | inactive: -0.149
NKRF C424 (UniProt O15226) | inactive: 0.165
PHGDH C18 (UniProt O43175) | inactive: 0.145
UniProt O14965_C290 | inactive: 0.257
ARPC2 C120 (UniProt O15144) | inactive: 0.0417
UniProt O14618_C244 | inactive: 0.107
ARPC3 C162 (UniProt O15145) | inactive: 0.0386
CLIC1 C223 (UniProt O00299) | inactive: -0.0438
HGS C215 (UniProt O14964) | inactive: 0.0123
ACOT8 C13 (UniProt O14734) | inactive: 0.343
IRS4 C1055 (UniProt O14654) | inactive: 0.109
MGST3 C56 (UniProt O14880) | inactive: 0.126
UniProt O14979_C177 | inactive: 0.192
IRS4 C332 (UniProt O14654) | inactive: 0.0576
UniProt O00148_C62 | inactive: -0.415
AGPS C297 (UniProt O00116) | inactive: 0.108
CIT C402 (UniProt O14578) | inactive: 0.581
XPO1 C164 (UniProt O14980) | inactive: -0.04

Some of the entries so far, tab-delimited:
Target	log2 ratio of iodoacetamide-alkyne labeling
ZSWIM8 C125 (UniProt A7E2V4)	inactive: 0.187
UniProt O00148_C62	inactive: -0.415
